We go through one compound from patent US11241412B2 (priority 2015, dated 2022).

For the data set the following is noted: aqueous solution in commercially available concentrations.

Consider `CCN(CC)CC(=O)Nc1c(C)cccc1C` [Lidocaine], for which the “time required for systemic absorption” value fell in the range of 2 to 4 h.
